{"source": "the supplement of paper PMC8728848", "binders": {"B1": {"name": "Aap lectin (Staphylococcus epidermidis) (protein)", "chain": "VNLNYSSPFMSLLSMPADSSSNNTKNTIDIPPTTVKGRDNYDFYGRVDIESNPTDLNATNLTRYNYGQPPGTTTAGAVQFKNQVSFDKDFDFNIRVANNRQSNTTGADGWGFMFSKKDGDDFLKNGGILREKGTPSAAGFRIDTGYYNNDPLDKIQKQAGQGYRGYGTFVKNDSQGNTSKVGSGTPSTDFLNYADNTTNDLDGKFHGQKLNNVNLKYNASNQTFTATYAGKTWTATLSELGLSPTDSYNFLVTSS"}}, "experiment_in_all_cases": "glycan array binding signal (z-score within array); higher = stronger binding", "conditions_in_all_cases": "glycan notation: IUPAC condensed, linker removed", "key": {"[1]": {"molecular_target": "Neu5Ac(a2-3)Gal(b1-3)GlcNAc(b1-2)Man(a1-3)[GlcNAc(b1-4)][Neu5Ac(a2-3)Gal(b1-3)GlcNAc(b1-2)Man(a1-6)]Man(b1-4)GlcNAc(b1-4)GlcNAc", "in_short": "(§1)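 Columns mapping to the same glycan were averaged after glycan names were converted to IUPAC-condensed notation. The data come from 3228 arrays in the Consortium for Functional Glycomics database, limited to those with an available protein sequence. Binding is reported as a within-array Z-score averaged across arrays of one protein sequence and across linkers.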"}, "[2]": {"molecular_target": "Neu5Ac(a2-3)Gal(b1-3)GlcNAc(b1-2)Man(a1-3)[Neu5Ac(a2-3)Gal(b1-3)GlcNAc(b1-2)Man(a1-6)]Man(b1-4)GlcNAc(b1-4)GlcNAc", "in_short": "as §1"}, "[3]": {"molecular_target": "Neu5Ac(a2-3)Gal(b1-3)GlcNAc(b1-2)[Neu5Ac(a2-3)Gal(b1-3)GlcNAc(b1-4)]Man(a1-6)[Neu5Ac(a2-3)Gal(b1-3)GlcNAc(b1-2)Man(a1-3)]Man(b1-4)GlcNAc(b1-4)GlcNAc", "in_short": "as §1"}, "[4]": {"molecular_target": "Neu5Ac(a2-3)Gal(b1-3)GlcNAc(b1-3)Gal(b1-3)GlcNAc", "in_short": "as §1"}, "[5]": {"molecular_target": "Neu5Ac(a2-3)Gal(b1-3)GlcNAc(b1-3)Gal(b1-4)GlcNAc", "in_short": "as §1"}, "[6]": {"molecular_target": "Neu5Ac(a2-3)Gal(b1-3)GlcNAc(b1-3)GalNAc", "in_short": "as §1"}, "[7]": {"molecular_target": "Neu5Ac(a2-3)Gal(b1-3)GlcNAc(b1-4)Gal(b1-4)Glc", "in_short": "as §1"}, "[8]": {"molecular_target": "Neu5Ac(a2-3)Gal(b1-3)GlcNAc(b1-6)GalNAc", "in_short": "as §1"}, "[9]": {"molecular_target": "Neu5Ac(a2-3)Gal(b1-3)GlcNAc6S", "in_short": "as §1"}, "[10]": {"molecular_target": "Neu5Ac(a2-3)Gal(b1-3)[Fuc(a1-4)]GlcNAc", "in_short": "as §1"}, "[11]": {"molecular_target": "Neu5Ac(a2-3)Gal(b1-3)[Fuc(a1-4)]GlcNAc(b1-3)Gal(b1-3)[Fuc(a1-4)]GlcNAc", "in_short": "as §1"}, "[12]": {"molecular_target": "Neu5Ac(a2-3)Gal(b1-3)[Fuc(a1-4)]GlcNAc(b1-3)Gal(b1-4)[Fuc(a1-3)]GlcNAc", "in_short": "as §1"}, "[13]": {"molecular_target": "Neu5Ac(a2-3)Gal(b1-3)[GlcNAc(b1-6)]GalNAc", "in_short": "as §1"}, "[14]": {"molecular_target": "Neu5Ac(a2-3)Gal(b1-3)[Neu5Ac(a2-6)]GalNAc", "in_short": "as §1"}, "[15]": {"molecular_target": "Neu5Ac(a2-3)Gal(b1-3)[Neu5Ac(a2-6)]GlcNAc(b1-3)[Fuc(a1-3)[Gal(b1-4)]GlcNAc(b1-6)]Gal(b1-4)Glc", "in_short": "as §1"}, "[16]": {"molecular_target": "Neu5Ac(a2-3)Gal(b1-3)]Neu5Ac(a2-3)Gal(b1-4)]GlcNAc", "in_short": "as §1"}, "[17]": {"molecular_target": "Neu5Ac(a2-3)Gal(b1-4)Glc", "in_short": "as §1"}, "[18]": {"molecular_target": "Neu5Ac(a2-3)Gal(b1-4)GlcNAc", "in_short": "as §1"}, "[19]": {"molecular_target": "Neu5Ac(a2-3)Gal(b1-4)GlcNAc(b1-2)Man", "in_short": "as §1"}, "[20]": {"molecular_target": "Neu5Ac(a2-3)Gal(b1-4)GlcNAc(b1-2)Man(a1-3)[GlcNAc(b1-4)][Neu5Ac(a2-3)Gal(b1-4)GlcNAc(b1-2)Man(a1-6)]Man(b1-4)GlcNAc(b1-4)GlcNAc", "in_short": "as §1"}, "[21]": {"molecular_target": "Neu5Ac(a2-3)Gal(b1-4)GlcNAc(b1-2)Man(a1-3)[Neu5Ac(a2-3)Gal(b1-4)GlcNAc(b1-2)Man(a1-6)]Man(b1-4)GlcNAc(b1-4)GlcNAc", "in_short": "as §1"}, "[22]": {"molecular_target": "Neu5Ac(a2-3)Gal(b1-4)GlcNAc(b1-2)Man(a1-3)[Neu5Ac(a2-3)Gal(b1-4)GlcNAc(b1-2)Man(a1-6)]Man(b1-4)GlcNAc(b1-4)[Fuc(a1-6)]GlcNAc", "in_short": "as §1"}, "[23]": {"molecular_target": "Neu5Ac(a2-3)Gal(b1-4)GlcNAc(b1-2)Man(a1-3)[Neu5Ac(a2-6)Gal(b1-4)GlcNAc(b1-2)Man(a1-6)]Man(b1-4)GlcNAc(b1-4)GlcNAc", "in_short": "as §1"}, "[24]": {"molecular_target": "Neu5Ac(a2-3)Gal(b1-4)GlcNAc(b1-2)[Neu5Ac(a2-3)Gal(b1-4)GlcNAc(b1-4)]Man(a1-3)[GlcNAc(b1-4)][Neu5Ac(a2-3)Gal(b1-4)GlcNAc(b1-2)[Neu5Ac(a2-3)Gal(b1-4)GlcNAc(b1-6)]Man(a1-6)]Man(b1-4)GlcNAc(b1-4)GlcNAc", "in_short": "as §1"}, "[25]": {"molecular_target": "Neu5Ac(a2-3)Gal(b1-4)GlcNAc(b1-2)[Neu5Ac(a2-3)Gal(b1-4)GlcNAc(b1-4)]Man(a1-3)[GlcNAc(b1-4)][Neu5Ac(a2-3)Gal(b1-4)GlcNAc(b1-4)Man(a1-6)]Man(b1-4)GlcNAc(b1-4)GlcNAc", "in_short": "as §1"}, "[26]": {"molecular_target": "Neu5Ac(a2-3)Gal(b1-4)GlcNAc(b1-2)[Neu5Ac(a2-3)Gal(b1-4)GlcNAc(b1-6)]Man(a1-6)[Neu5Ac(a2-3)Gal(b1-4)GlcNAc(b1-2)Man(a1-3)][GlcNAc(b1-4)]Man(b1-4)GlcNAc(b1-4)GlcNAc", "in_short": "as §1"}, "[27]": {"molecular_target": "Neu5Ac(a2-3)Gal(b1-4)GlcNAc(b1-3)Gal", "in_short": "as §1"}, "[28]": {"molecular_target": "Neu5Ac(a2-3)Gal(b1-4)GlcNAc(b1-3)Gal(b1-3)GlcNAc", "in_short": "as §1"}, "[29]": {"molecular_target": "Neu5Ac(a2-3)Gal(b1-4)GlcNAc(b1-3)Gal(b1-4)GlcNAc", "in_short": "as §1"}, "[30]": {"molecular_target": "Neu5Ac(a2-3)Gal(b1-4)GlcNAc(b1-3)Gal(b1-4)GlcNAc(b1-2)Man(a1-3)[Neu5Ac(a2-3)Gal(b1-4)GlcNAc(b1-3)Gal(b1-4)GlcNAc(b1-2)Man(a1-6)]Man(b1-4)GlcNAc(b1-4)GlcNAc", "in_short": "as §1"}, "[31]": {"molecular_target": "Neu5Ac(a2-3)Gal(b1-4)GlcNAc(b1-3)Gal(b1-4)GlcNAc(b1-3)Gal(b1-4)GlcNAc", "in_short": "as §1"}, "[32]": {"molecular_target": "Neu5Ac(a2-3)Gal(b1-4)GlcNAc(b1-3)Gal(b1-4)GlcNAc(b1-3)Gal(b1-4)GlcNAc(b1-2)Man(a1-3)[Neu5Ac(a2-3)Gal(b1-4)GlcNAc(b1-3)Gal(b1-4)GlcNAc(b1-3)Gal(b1-4)GlcNAc(b1-2)Man(a1-6)]GalNAc", "in_short": "as §1"}, "[33]": {"molecular_target": "Neu5Ac(a2-3)Gal(b1-4)GlcNAc(b1-3)Gal(b1-4)GlcNAc(b1-3)GalNAc", "in_short": "as §1"}, "[34]": {"molecular_target": "Neu5Ac(a2-3)Gal(b1-4)GlcNAc(b1-3)Gal(b1-4)GlcNAc(b1-3)[Neu5Ac(a2-3)Gal(b1-4)GlcNAc(b1-3)Gal(b1-4)GlcNAc(b1-6)]GalNAc", "in_short": "as §1"}, "[35]": {"molecular_target": "Neu5Ac(a2-3)Gal(b1-4)GlcNAc(b1-3)Gal(b1-4)GlcNAc(b1-6)[Gal(b1-3)]GalNAc", "in_short": "as §1"}, "[36]": {"molecular_target": "Neu5Ac(a2-3)Gal(b1-4)GlcNAc(b1-3)Gal(b1-4)[Fuc(a1-3)]GlcNAc", "in_short": "as §1"}, "[37]": {"molecular_target": "Neu5Ac(a2-3)Gal(b1-4)GlcNAc(b1-3)GalNAc", "in_short": "as §1"}, "[38]": {"molecular_target": "Neu5Ac(a2-3)Gal(b1-4)GlcNAc(b1-3)[Neu5Ac(a2-3)Gal(b1-4)GlcNAc(b1-6)]GalNAc", "in_short": "as §1"}}, "note": "This is one part of the list.", "data": [{"binder": "B1", "values": [{"measurement": "glycan array binding signal (z-score)", "setting": "[1]", "value": 1.11}, {"measurement": "glycan array binding signal (z-score)", "setting": "[2]", "value": -0.722}, {"measurement": "glycan array binding signal (z-score)", "setting": "[3]", "value": -0.885}, {"measurement": "glycan array binding signal (z-score)", "setting": "[4]", "value": -0.943}, {"measurement": "glycan array binding signal (z-score)", "setting": "[5]", "value": -0.71}, {"measurement": "glycan array binding signal (z-score)", "setting": "[6]", "value": -0.506}, {"measurement": "glycan array binding signal (z-score)", "setting": "[7]", "value": 1.61}, {"measurement": "glycan array binding signal (z-score)", "setting": "[8]", "value": 1.91}, {"measurement": "glycan array binding signal (z-score)", "setting": "[9]", "value": 0.081}, {"measurement": "glycan array binding signal (z-score)", "setting": "[10]", "value": -0.496}, {"measurement": "glycan array binding signal (z-score)", "setting": "[11]", "value": -0.794}, {"measurement": "glycan array binding signal (z-score)", "setting": "[12]", "value": 1.41}, {"measurement": "glycan array binding signal (z-score)", "setting": "[13]", "value": -0.72}, {"measurement": "glycan array binding signal (z-score)", "setting": "[14]", "value": -0.509}, {"measurement": "glycan array binding signal (z-score)", "setting": "[15]", "value": 0.304}, {"measurement": "glycan array binding signal (z-score)", "setting": "[16]", "value": -0.05}, {"measurement": "glycan array binding signal (z-score)", "setting": "[17]", "value": 0.518}, {"measurement": "glycan array binding signal (z-score)", "setting": "[18]", "value": -0.35}, {"measurement": "glycan array binding signal (z-score)", "setting": "[19]", "value": -0.335}, {"measurement": "glycan array binding signal (z-score)", "setting": "[20]", "value": -0.854}, {"measurement": "glycan array binding signal (z-score)", "setting": "[21]", "value": -0.933}, {"measurement": "glycan array binding signal (z-score)", "setting": "[22]", "value": 1.01}, {"measurement": "glycan array binding signal (z-score)", "setting": "[23]", "value": -0.603}, {"measurement": "glycan array binding signal (z-score)", "setting": "[24]", "value": -0.88}, {"measurement": "glycan array binding signal (z-score)", "setting": "[25]", "value": -0.885}, {"measurement": "glycan array binding signal (z-score)", "setting": "[26]", "value": -0.339}, {"measurement": "glycan array binding signal (z-score)", "setting": "[27]", "value": 0.321}, {"measurement": "glycan array binding signal (z-score)", "setting": "[28]", "value": -0.822}, {"measurement": "glycan array binding signal (z-score)", "setting": "[29]", "value": -0.266}, {"measurement": "glycan array binding signal (z-score)", "setting": "[30]", "value": -0.87}, {"measurement": "glycan array binding signal (z-score)", "setting": "[31]", "value": -0.514}, {"measurement": "glycan array binding signal (z-score)", "setting": "[32]", "value": 2.15}, {"measurement": "glycan array binding signal (z-score)", "setting": "[33]", "value": -0.918}, {"measurement": "glycan array binding signal (z-score)", "setting": "[34]", "value": -0.88}, {"measurement": "glycan array binding signal (z-score)", "setting": "[35]", "value": -0.583}, {"measurement": "glycan array binding signal (z-score)", "setting": "[36]", "value": -0.494}, {"measurement": "glycan array binding signal (z-score)", "setting": "[37]", "value": -0.799}, {"measurement": "glycan array binding signal (z-score)", "setting": "[38]", "value": -0.878}]}]}
